# In PubChem BioAssay AID493014 (National Center for Advancing Translational Sciences (NCATS), 2011):
# The other results are listed elsewhere or left out. These are further read-outs of the screen, such as a control signal, another cell line or another target. No call is given for them. Most of these compounds were active or inconclusive in the main read-out, so they are no random draw. Words in brackets tell the shape of the fitted curve; partial curves, single points and poor fits give uncertain potencies.
# Experiment: qHTS Assay to Find Inhibitors of Chronic Active B-Cell Receptor Signaling
# Details: ABC-DLBCL IkBa-CBG/CBR reporter, luminescence ratio (green luciferase fused to IkBa over red control in TMD8 lymphoma cells), 4 h
# Procedure, shortened: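 Concentration-response series (up to 46 uM) were applied to TMD8 dual-reporter cells for 4 h at 37C with doxycycline. Green/red ratio, after filter-overlap correction, defined %Activity; red signal alone was normalised to basal cells and zero luminescence.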
# [1] = measured here: CBR red luminescence, cell number
# [2] = measured here: IkBa-CBG green luminescence
compound,measurement,setting,value
COCCCNC(=O)c1ccc(CS(=O)(=O)c2cccc(C(F)(F)F)c2)o1,AC50,[1],"35.5 µM [rising, single point]"
CC(C)(O)c1[nH]c2ccc(C(F)(F)F)cc2c1C(C)(C)O,AC50,[1],"1.12 µM [rising, full curve, poor fit]"
Cc1nc2c(C(=O)NCCC(C)C)c[nH]n2c(=O)c1Cc1ccccc1F,AC50,[1],"10 µM [falling, partial curve]"
CCCNC(=O)COc1coc(CN2CCN(c3ccc(F)cc3)CC2)cc1=O,AC50,[1],"4.47 µM [falling, full curve, poor fit]"
COc1ccc2ccccc2c1/C=N/NC(=S)NCCN1CCOCC1,AC50,[2],"22.4 µM [falling, single point]"
COc1ccc(OCC(O)CNS(=O)(=O)c2cccs2)cc1 (stereo not given),AC50,[1],"0.447 µM [falling, full curve, poor fit]"
CCN1/C(=C(\O)c2ccccc2)C(=O)c2ccccc2S1(=O)=O,AC50,[1],"29.1 µM [falling, single point]"
N#C/C(=C\c1ccco1)C(=O)NCc1ccccc1,AC50,[1],"0.891 µM [rising, full curve, poor fit]"
O=C(CSc1cc(Cl)ccc1Cl)Nc1ccc(N2CCOCC2)cc1,AC50,[1],"29.1 µM [rising, single point]"
same,AC50,[2],"18.4 µM [falling, partial curve, poor fit]"
O=[N+]([O-])C(=C1SCCS1)C(=C(Cl)Cl)N1CCCCC1,AC50,[2],"35.5 µM [rising, partial curve, poor fit]"
CC(=O)c1cccc(NC(=O)NCCS(C)=O)c1 (stereo not given),AC50,[1],"14.1 µM [rising, partial curve, poor fit]"
O=C(Nc1ccc(Cc2ccncc2)cc1)C1CCC(N2C(=O)C3CC=CCC3C2=O)CC1 (stereo not given),AC50,[1],"18.4 µM [falling, single point]"
CC(=O)Nc1cnc(NC(=O)c2cccc(F)c2)cc1C,AC50,[1],"9.2 µM [falling, partial curve, poor fit]"
COc1ccccc1NC(=O)C1=C(C)Nc2nnnn2C1c1ccccn1 (stereo not given),AC50,[1],"14.6 µM [falling, single point]"
O=C(CCl)N(c1ccc(Cl)cc1)c1c[nH]c2ccccc12,AC50,[1],"7.31 µM [falling, full curve, poor fit]"
O=C(NC(=S)Nc1ccc(N2CCOCC2)cc1)c1ccco1,AC50,[1],"2.31 µM [rising, full curve]"
NS(=O)(=O)c1ccc(NC(=O)/C=C/c2ccco2)cc1,AC50,[1],"12.6 µM [falling, single point]"
Cc1ccsc1/C=C/C1=NCCCN1C,AC50,[1],"29.1 µM [rising, single point]"
same,AC50,[2],"25.9 µM [falling, partial curve, poor fit]"
CCc1nnc(NC(=O)C2CCC(CNc3c(N4CCCCC4)c(=O)c3=O)CC2)s1 (stereo not given),AC50,[1],"0.562 µM [rising, full curve, poor fit]"
Cc1ccsc1/C=N/NC(=O)C(=O)NCC(C)C,AC50,[1],"7.94 µM [falling, partial curve]"
O=C(CSc1nnc(-c2ccncc2)n1Cc1ccccc1)NC1CCCCC1,AC50,[1],"35.5 µM [falling, single point]"
COc1cccc(C(=O)Nc2ccc(-n3nncc3-c3ccccc3)cc2)c1OC,AC50,[1],"35.5 µM [falling, single point]"
CCCNC(=O)c1cc(-c2ccccc2)c(N2CCCCC2)s1,AC50,[1],"7.08 µM [rising, partial curve, poor fit]"
Cc1ccc(Sc2ncnc3onc(C)c23)cc1,AC50,[1],"7.08 µM [falling, partial curve]"
COc1cc(NC(=O)N2CCOCC2)cc(OC)c1,AC50,[1],"29.1 µM [rising, single point]"
CCOC(=O)/C=C/C(=O)OCC(=O)Nc1ccc(OC)c(Cl)c1,AC50,[1],"29.1 µM [rising, single point]"
same,AC50,[2],"32.6 µM [falling, partial curve, poor fit]"
Fc1ccc(CSc2nnc(-c3ccco3)o2)cc1,AC50,[1],"2.51 µM [rising, partial curve, poor fit]"
C=CC[C@H](CC(=O)N(CCO)Cc1ccccc1)C(=O)N[C@H](COC(=O)[C@@H](CC=C)Cc1ccc(F)cc1)Cc1ccccc1,AC50,[1],"29.1 µM [falling, single point]"
CC1(C)CC(=O)C(C=Nc2ccc(N)cc2)=C(O)C1,AC50,[1],"0.398 µM [falling, full curve, poor fit]"
CCCCCCc1nc2ccccc2c(=O)n1N,AC50,[1],"10 µM [rising, partial curve, poor fit]"
Cc1ccc(C(=O)Nc2nn(C)c3cccc(F)c23)cc1,AC50,[1],"1 µM [falling, full curve, poor fit]"
CC(=O)c1cccc(NC(=O)COC(=O)c2cccc(N3C(=O)c4ccccc4C3=O)c2)c1,AC50,[1],"23.1 µM [falling, single point]"
C=CCN1C(=O)/C(=C\c2ccc(OC(=O)c3ccco3)c(OC)c2)SC1=S,AC50,[1],"6.31 µM [rising, partial curve]"
O=C(NN=C1CCCCCCCCCCC1)c1cccnc1,AC50,[1],"12.6 µM [falling, partial curve]"
O=C(CSc1ncnc2scc(-c3ccccc3)c12)NC1CCS(=O)(=O)C1 (stereo not given),AC50,[1],"10 µM [rising, partial curve]"
same,AC50,[2],"11.2 µM [falling, partial curve, poor fit]"
O=C(CCN1CCN(c2ccccc2)CC1)c1ccc(Cl)cc1,AC50,[1],"35.5 µM [falling, single point]"
COc1ccccc1NC(=O)Cc1noc(CSc2n[nH]c(N)n2)n1,AC50,[1],"7.94 µM [rising, partial curve, poor fit]"
CCOC(=O)c1[nH]c(C)c(C)c1C,AC50,[1],"35.5 µM [rising, single point]"
COc1cc(C(=O)N/N=C/c2cn(Cc3ccccc3)c3ccccc23)ccc1O,AC50,[1],"2.51 µM [falling, partial curve, poor fit]"
Cn1nnnc1Sc1ncnc2scc(-c3cccs3)c12,AC50,[1],"9.2 µM [falling, partial curve, poor fit]"
C=CCn1c(Cc2cccs2)nnc1SCC(=O)Nc1ccc(C(=O)OCC)cc1,AC50,[1],"22.4 µM [falling, single point]"
NC(=O)c1oc2ccccc2c1NC(=O)c1ccccc1,AC50,[1],"1.46 µM [falling, full curve]"
C/C(=N\NC(=O)C(O)c1ccccc1)c1ccc(Cl)cc1 (stereo not given),AC50,[1],"10 µM [falling, partial curve, poor fit]"
O=C(O)CCN(CC(=O)c1ccc(Cl)cc1)S(=O)(=O)c1ccc([N+](=O)[O-])cc1,AC50,[1],"18.4 µM [falling, single point]"
COc1ccc(CNC(=O)OCCN2CCN(S(=O)(=O)c3ccc(C)cc3)CCC2=O)cc1,AC50,[1],"3.66 µM [rising, partial curve]"
same,AC50,[2],"5.17 µM [falling, partial curve, poor fit]"
CCCC(=O)Nc1ccc2c(c1)c1ccccc1n2CC,AC50,[1],"32.6 µM [rising, partial curve, poor fit]"
CCc1ccc(C(=O)Nc2cccc(-c3nn[nH]n3)c2)s1,AC50,[1],"35.5 µM [falling, single point]"
NNC(=O)c1ccc(COc2cccc3ccccc23)cc1,AC50,[1],"2.59 µM [falling, partial curve, poor fit]"
CC(=O)N(c1ccc(C)cc1)c1nc(C)cc(C)c1C#N,AC50,[1],"1.26 µM [falling, partial curve, poor fit]"
CCc1sc(C(=O)Nc2cccc(C(C)=O)c2)cc1C,AC50,[1],"1.64 µM [rising, full curve]"
CC(O)CN(Cc1cccc(Cl)c1)CC(C)O (stereo not given),AC50,[1],"0.731 µM [rising, full curve, poor fit]"
COc1ccc(C(=O)Nc2nnc(C3=COCCO3)o2)cc1,AC50,[1],"5.62 µM [falling, partial curve]"
same,AC50,[2],"5.62 µM [falling, single point]"
COc1ccc(NC(=O)c2cc(-c3ccccc3)oc2C)cc1,AC50,[2],"0.184 µM [rising, full curve, poor fit]"
c1ccc(CN2c3ccccc3-c3nc4ccccc4n3C2c2ccccn2)cc1 (stereo not given),AC50,[1],"10 µM [falling, partial curve, poor fit]"
same,AC50,[2],"20 µM [rising, single point]"
Cc1ccc(N2CCN(C(=O)C3CCC(=O)N(Cc4ccc(Cl)cc4)C3)CC2)c(C)c1 (stereo not given),AC50,[1],"15.8 µM [falling, single point]"
O=C(Nc1scc(-c2ccccc2)c1C(=O)O)c1ccccc1F,AC50,[1],"11.2 µM [falling, partial curve]"
Nc1cccc(-c2nnc3n2CCCCC3)c1,AC50,[1],"6.31 µM [falling, partial curve, poor fit]"
O=C(COc1ccccc1[N+](=O)[O-])c1ccccc1,AC50,[1],"31.6 µM [falling, partial curve, poor fit]"
COc1cc(C(=O)Nc2nccs2)ccc1OCc1c(C)noc1C,AC50,[1],"0.631 µM [falling, full curve]"
O=C(CSc1nnc(-c2ccco2)o1)NC(=O)Cc1ccccc1,AC50,[1],"29.1 µM [rising, single point]"
COc1ccc(-c2nnc(SCC(=O)c3ccc(C)o3)o2)cc1,AC50,[1],"8.2 µM [rising, partial curve, poor fit]"
COC(=O)c1ccc(N/C=C/C(=O)c2ccc(OC)c(OC)c2)cc1,AC50,[1],"1.26 µM [falling, full curve, poor fit]"
CCc1ccc(-c2cc(C(=O)Nc3ccc(S(=O)(=O)NC(C)=O)cc3)c3ccccc3n2)cc1,AC50,[1],"15.8 µM [falling, partial curve]"

# A different layout for some results above.
compound | measurement | setting | value
O=C(CSc1ncnc2scc(-c3ccccc3)c12)NC1CCS(=O)(=O)C1 (stereo not given) | AC50 | [1] | 10 µM [rising, partial curve]
same | AC50 | [2] | 11.2 µM [falling, partial curve, poor fit]
